These are yes or no findings as the source states them, for the method shown. Binding seen in cells or lysates may run through a third protein. A result given as binding can be weak or reduced; the word gives no strength. Sequences can lack the tags named with a protein.
Target: T1, Homeodomain-interacting protein kinase (Hipk) fused C-terminally to the N-terminal fragment of YFP (Drosophila) (UniProt Q9W0Q1)
T1 sequence: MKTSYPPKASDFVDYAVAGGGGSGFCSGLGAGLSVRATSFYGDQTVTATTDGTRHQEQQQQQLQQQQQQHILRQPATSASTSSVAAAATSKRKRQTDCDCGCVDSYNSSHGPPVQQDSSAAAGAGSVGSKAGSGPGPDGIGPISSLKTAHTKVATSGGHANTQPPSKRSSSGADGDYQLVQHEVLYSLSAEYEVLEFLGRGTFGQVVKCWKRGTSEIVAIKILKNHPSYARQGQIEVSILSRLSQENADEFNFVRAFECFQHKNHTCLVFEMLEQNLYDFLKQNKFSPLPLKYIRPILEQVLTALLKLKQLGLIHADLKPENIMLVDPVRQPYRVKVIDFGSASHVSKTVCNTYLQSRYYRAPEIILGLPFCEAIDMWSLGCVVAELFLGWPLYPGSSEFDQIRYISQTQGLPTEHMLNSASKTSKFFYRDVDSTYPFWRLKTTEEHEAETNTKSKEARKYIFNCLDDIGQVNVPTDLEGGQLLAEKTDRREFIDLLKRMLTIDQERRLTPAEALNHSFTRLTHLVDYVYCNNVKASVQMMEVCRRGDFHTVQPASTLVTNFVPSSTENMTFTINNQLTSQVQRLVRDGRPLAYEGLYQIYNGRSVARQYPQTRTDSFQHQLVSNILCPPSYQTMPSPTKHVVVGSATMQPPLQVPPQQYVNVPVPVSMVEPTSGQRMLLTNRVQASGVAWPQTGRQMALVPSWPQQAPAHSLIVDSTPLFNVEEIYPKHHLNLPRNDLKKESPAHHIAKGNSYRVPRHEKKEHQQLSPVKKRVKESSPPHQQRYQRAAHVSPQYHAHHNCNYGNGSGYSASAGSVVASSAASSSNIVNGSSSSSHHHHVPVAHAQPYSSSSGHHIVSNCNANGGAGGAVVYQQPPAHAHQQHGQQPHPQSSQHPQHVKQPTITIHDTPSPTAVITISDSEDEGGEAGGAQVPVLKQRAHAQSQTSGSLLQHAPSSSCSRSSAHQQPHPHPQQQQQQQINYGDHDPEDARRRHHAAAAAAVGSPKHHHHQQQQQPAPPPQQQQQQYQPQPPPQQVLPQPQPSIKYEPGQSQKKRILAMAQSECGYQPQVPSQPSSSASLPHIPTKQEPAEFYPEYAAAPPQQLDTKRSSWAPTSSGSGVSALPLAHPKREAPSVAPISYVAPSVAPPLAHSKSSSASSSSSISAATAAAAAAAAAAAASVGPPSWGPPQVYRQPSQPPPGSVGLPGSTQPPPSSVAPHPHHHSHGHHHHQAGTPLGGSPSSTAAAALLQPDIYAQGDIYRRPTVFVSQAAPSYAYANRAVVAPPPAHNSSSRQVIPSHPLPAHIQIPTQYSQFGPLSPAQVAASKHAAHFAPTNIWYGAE
Assay: split reporter; BiFC: NYFP and CYFP fusions coexpressed from UAS constructs with MS1096-Gal4 in third larval instar wing imaginal discs; crosses at 25 °C; anti-GFP immunostaining to enhance the YFP signal

In the case of “Homeobrain (Hbn) fused to the C-terminal fragment of YFP (Drosophila)”, the binding is reported as “binds”.
